PubChem BioAssay AID504764 | Drosophila RNAi Screening Center | 2011

- Screen: 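Knock-downs that raise or lower a Notch target reporter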 (primary screen)
- Cells: Drosophila Kc167 cells
- Reagents: long dsRNA against Drosophila genes
- Timing: about 5 days (4 days dsRNA, then 24 h after transfection)
- Challenge: transfection of constitutively active membrane-tethered Notch lacking the extracellular domain, read 24 h later
- Detection: 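Firefly luciferase from an E(spl)m3 reporter with active Notch, plus control-promoter and uninduced reporter wells for normalisation; unnormalised counts, duplicate wells a and b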
- Direction: induced reporter light, run 1, well a and induced reporter light, run 1, well b: higher = more light from the Notch target reporter with active Notch; control promoter light, run 1, well a and control promoter light, run 1, well b: higher = more light from the viral control promoter (cell number, transfection, viability); uninduced reporter light, run 1, well a: higher = more light from the Notch target reporter without active Notch
- Call rule: 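Wells with low control signal or poorly matching duplicates excluded; duplicates averaged; per source plate, z beyond ±2 for induced/control log2 ratio or beyond ±1.8 for induced/uninduced marks a hit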
- Meaning of the calls: active = modifier hit (raised or lowered Notch signal); inactive = not a hit
The deposit covers about 22,000 reagents; this is an unselected part of those with a known target gene and a result. In the full data, 403 (1.9%) are marked active. 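Unnormalised raw counts per well; ratio z-scores behind the hit calls and whether each hit raises or lowers signal are not deposited.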 A plus sign joins genes that one reagent is predicted to hit. Not stated in the record: the amount of reagent.

Target gene	dsRNA	induced reporter light, run 1, well a	induced reporter light, run 1, well b	control promoter light, run 1, well a	control promoter light, run 1, well b	uninduced reporter light, run 1, well a	outcome
PolE2 (DNA polymerase epsilon subunit 2)	DRSC09737	89820	1.11e5	77860	29000	9790	inactive
Ser (Serrate)	DRSC16856	1.84e5	1.71e5	3.06e5	2.31e5	16930	inactive
BomT3 (Bomanin Tailed 3)	DRSC13537	75000	67225	71280	69070	8240	inactive
BomT3 (Bomanin Tailed 3)	DRSC15871	1.38e5	1.52e5	2.12e5	2.25e5	11130	inactive
CG31122	DRSC14787	38	92	280	195	15	inactive
CG31122	DRSC16286	1.47e5	1.19e5	1.25e5	1.37e5	11075	inactive
Mur82C (Mucin related 82C)	DRSC12011	1.34e5	1.54e5	1.08e5	1.11e5	17220	inactive
Mur82C (Mucin related 82C)	DRSC12212	1.48e5	1.33e5	1.48e5	1.43e5	10120	inactive
Cam (Calmodulin)	DRSC07353	88560	87290	1.15e5	1.26e5	10055	inactive
Cam (Calmodulin)	DRSC07354	70030	64225	1.17e5	87520	6690	inactive
N (Notch)	DRSC18685	1.38e5	1.31e5	1.89e5	1.79e5	8875	inactive
CG31482	DRSC12582	79160	1.00e5	80855	60815	4528	inactive
Ptpa (Phosphotyrosyl phosphatase activator)	DRSC00776	1.76e5	1.82e5	1.79e5	1.63e5	14200	inactive
brv3 (brivido-3)	DRSC18657	95080	98250	1.28e5	1.58e5	7175	inactive
CG2100	DRSC12303	1.22e5	1.40e5	94775	82925	9975	inactive
CG7194	DRSC10784	1.69e5	1.39e5	1.59e5	1.79e5	4905	inactive
Spase25 (Spase 25-subunit)	DRSC19776	1.73e5	2.09e5	2.24e5	2.40e5	11738	inactive
Hipk (Homeodomain interacting protein kinase)	DRSC07885	53520	55990	50145	54935	12675	inactive
Hipk (Homeodomain interacting protein kinase)	DRSC08507	29575	24410	50485	49900	6625	inactive
CG9427	DRSC16490	1.30e5	1.22e5	83530	89580	11635	inactive
MESK2 (Misexpression suppressor of KSR 2)	DRSC04258	67020	45895	40205	56550	3155	inactive
tyn (trynity)	DRSC20652	93195	85315	78510	90805	9782	inactive
unk (unkempt)	DRSC17093	2.09e5	1.86e5	2.16e5	2.78e5	16960	inactive
tty (tweety)	DRSC20588	1.48e5	1.40e5	1.30e5	75935	10880	inactive
Ctl2 (Choline transporter-like 2)	DRSC14423	1.81e5	2.17e5	2.29e5	2.22e5	12545	inactive
CG43902	DRSC17999	1.03e5	82120	2.33e5	1.55e5	6985	inactive
CG10348	DRSC02043	50190	39980	42555	47465	2525	inactive
CG10348	DRSC21908						inactive
CG10417	DRSC04846	1.21e5	1.51e5	75755	85620	6605	active
CG5849	DRSC15893	1.77e5	1.57e5	1.81e5	1.77e5	10720	inactive
ATPsynF (ATP synthase, subunit F)	DRSC04482	61530	62520	51900	57865	4240	inactive
CG32762	DRSC18298	1.50e5	1.55e5	2.29e5	2.59e5	11840	inactive
lncRNA:CR42646 (long non-coding RNA:CR42646)	DRSC04759	91555	96100	90000	93380	4550	inactive
CG14610 + asRNA:CR42738	DRSC12554	57505	76580	92200	64575	6885	inactive
